For 1 molecule, binding results are on record in paper PMC12398534.

Results are given in words; binding and its absence hold for the method and conditions named. In cells and extracts the contact can be indirect. Some entries that bind do so weakly or less than the wild type.

The experiment deals with T1, PPP1R3B (human (endogenous in FaDu or 5-8F cells)) (UniProt Q86XI6).
T1 sequence: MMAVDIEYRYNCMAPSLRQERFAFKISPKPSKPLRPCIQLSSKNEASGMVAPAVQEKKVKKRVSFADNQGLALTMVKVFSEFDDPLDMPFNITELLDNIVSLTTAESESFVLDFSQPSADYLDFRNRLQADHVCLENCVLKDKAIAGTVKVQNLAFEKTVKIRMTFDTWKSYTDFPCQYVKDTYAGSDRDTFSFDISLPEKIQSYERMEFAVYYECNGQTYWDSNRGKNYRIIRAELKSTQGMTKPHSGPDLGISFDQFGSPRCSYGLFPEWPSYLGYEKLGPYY
The experiment can be described thus: co-IP; cell lysates incubated with AminoLink resin coupled to antibodies against PPP1R3B, PP1C or PHKG2; eluates analysed by Western blotting; cells with different PHKG2 expression levels. A general note: A western blot detects proteins with antibodies after separation by electrophoresis.

B1: PHKG2 (enzyme, UniProt P15735 1-406)
chain: MTLDVGPEDELPDWAAAKEFYQKYDPKDVIGRGVSSVVRRCVHRATGHEFAVKIMEVTAERLSPEQLEEVREATRRETHILRQVAGHPHIITLIDSYESSSFMFLVFDLMRKGELFDYLTEKVALSEKETRSIMRSLLEAVSFLHANNIVHRDLKPENILLDDNMQIRLSDFGFSCHLEPGEKLRELCGTPGYLAPEILKCSMDETHPGYGKEVDLWACGVILFTLLAGSPPFWHRRQILMLRMIMEGQYQFSSPEWDDRSSTVKDLISRLLQVDPEARLTAEQALQHPFFERCEGSQPWNLTPRQRFRVAVWTVLAAGRVALSTHRVRPLTKNALLRDPYALRSVRHLIDNCAFRLYGHWVKKGEQQNRAALFQHRPPGPFPIMGPEEEGDSAAITEDEAVLVLG
For B1, the binding result is listed as “binds”.
